Assay results taken from publication PMC12817445.
These are yes or no findings as the source states them, for the method shown. In cells and extracts the contact can be indirect. Some entries that bind do so weakly or less than the wild type. Each block holds one substance with its values, some of them ahead of it.

Chains of the proteins cited; added tags and fusions are not shown. Lines headed by an entry give the natural chain unless they say otherwise; changes in a name come on top.
UniProt O00425: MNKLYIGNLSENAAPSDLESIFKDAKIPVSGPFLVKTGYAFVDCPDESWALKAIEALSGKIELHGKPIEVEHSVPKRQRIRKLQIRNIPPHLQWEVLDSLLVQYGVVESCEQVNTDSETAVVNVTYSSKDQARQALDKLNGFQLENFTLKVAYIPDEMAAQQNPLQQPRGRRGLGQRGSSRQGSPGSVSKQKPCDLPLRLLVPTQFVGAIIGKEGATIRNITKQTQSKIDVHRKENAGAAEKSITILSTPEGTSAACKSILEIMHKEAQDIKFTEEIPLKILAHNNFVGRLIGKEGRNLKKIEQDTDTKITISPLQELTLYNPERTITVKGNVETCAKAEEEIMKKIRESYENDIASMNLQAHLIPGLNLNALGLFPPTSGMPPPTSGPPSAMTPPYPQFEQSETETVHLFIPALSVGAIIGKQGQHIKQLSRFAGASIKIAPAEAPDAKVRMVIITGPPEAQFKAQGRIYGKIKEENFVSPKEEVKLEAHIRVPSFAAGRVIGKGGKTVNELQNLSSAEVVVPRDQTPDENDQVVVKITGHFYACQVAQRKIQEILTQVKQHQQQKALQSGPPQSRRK
UniProt Q14258: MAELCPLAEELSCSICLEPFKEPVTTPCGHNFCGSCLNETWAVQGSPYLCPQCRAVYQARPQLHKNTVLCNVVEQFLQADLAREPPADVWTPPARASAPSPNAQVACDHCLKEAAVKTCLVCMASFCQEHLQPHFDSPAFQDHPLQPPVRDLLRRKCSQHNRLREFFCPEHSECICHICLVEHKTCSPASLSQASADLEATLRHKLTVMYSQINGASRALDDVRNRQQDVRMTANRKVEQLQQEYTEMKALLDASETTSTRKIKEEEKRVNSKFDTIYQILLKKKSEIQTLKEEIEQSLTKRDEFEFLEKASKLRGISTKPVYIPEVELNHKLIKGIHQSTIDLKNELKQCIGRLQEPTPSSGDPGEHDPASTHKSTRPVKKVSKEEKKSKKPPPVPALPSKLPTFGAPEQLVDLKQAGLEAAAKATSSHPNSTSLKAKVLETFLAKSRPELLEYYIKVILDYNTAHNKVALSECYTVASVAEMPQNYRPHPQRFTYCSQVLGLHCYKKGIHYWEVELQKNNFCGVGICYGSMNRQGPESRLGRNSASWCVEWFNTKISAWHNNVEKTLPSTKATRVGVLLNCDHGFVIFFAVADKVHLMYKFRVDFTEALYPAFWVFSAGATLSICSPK

Legend:
[1] = target: IGF2BP3, endogenous (human (endogenous in HCC cells)) (UniProt O00425); assay: co-IP; endogenous proteins; lysate incubated overnight at 4 °C with anti-IGF2BP3 antibody, normal IgG as negative control, protein A-Sepharose beads, immunoblot
IGF2BP3 I312R mutant = IGF2BP3 I312R mutant (UniProt O00425); assay: co-IP; TRIM25 with IGF2BP3 wild type or point mutants (D294R, G296R, I312R, T328R); Supplementary Fig. 4C; cells and tags not given
[2] = target: IGF2BP3 wild-type (WT), as used beside the point mutants (UniProt O00425); assay: as above
IGF2BP3 G296R mutant = IGF2BP3 G296R mutant (UniProt O00425); assay: as above
IGF2BP3 T328R mutant = IGF2BP3 T328R mutant (UniProt O00425); assay: as above
[3] = target: Insulin-like growth factor-2 mRNA-binding protein 3 (IGF2BP3), Flag-tagged (UniProt O00425); assay: co-IP; exogenous interaction: HA-tagged TRIM25 and Flag-tagged IGF2BP3 expressed in HEK293T cells; IP lysis buffer, immunoblot
[4] = target: Insulin-like growth factor-2 mRNA-binding protein 3 (IGF2BP3), Flag-tagged (UniProt O00425); assay: co-IP; HEK293T cells co-transfected with Flag-IGF2BP3 and His-TRIM25, with or without overexpression of the lncRNA LL22NC03; IgG as negative control

binding [1]: binds
Substance: TRIM25, endogenous (from UniProt Q14258 1-630) (enzyme)

binding (IGF2BP3 I312R mutant): binds | binding [2]: binds | binding (IGF2BP3 G296R mutant): binds | binding (IGF2BP3 T328R mutant): binds
Substance: TRIM25, as used in the co-IP with the IGF2BP3 point mutants (from UniProt Q14258 1-630) (enzyme)

binding [3]: binds
Substance: TRIM25, HA-tagged (from UniProt Q14258 1-630) (enzyme)

binding [4]: binds
Substance: TRIM25, His-tagged (from UniProt Q14258 1-630) (enzyme)
